Experimental data reported in publication PMC5007355.

Assays:
[1] = target: T1, Fur (ferric uptake regulator) (UniProt O25671); assay: DNase I footprinting; details: holo (150 uM Fe2+), site fOPII, affinity lower than apo; Footprinting: 15 fmol probe in 50 ul, 300 ng salmon sperm DNA, room temperature, 150 uM Fe2+ or dipyridyl; competitive buffer 20 mM HEPES pH 7.85, 50 mM KCl; recombinant protein; label: 5'-32P on one strand; probe letters rebuilt from the primers and the genome; part of a longer molecule
T1 sequence (looked up, limits assumed): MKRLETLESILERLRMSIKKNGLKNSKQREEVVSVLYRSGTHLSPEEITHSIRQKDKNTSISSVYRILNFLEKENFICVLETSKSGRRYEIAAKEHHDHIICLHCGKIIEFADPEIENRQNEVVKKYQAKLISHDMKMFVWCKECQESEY

[2] = target: T1, Fur (ferric uptake regulator); assay: competitive DNase I footprinting; details: Footprinting: 15 fmol probe in 50 ul, 300 ng salmon sperm DNA, room temperature, 150 uM Fe2+ or dipyridyl, competitive buffer 20 mM HEPES pH 7.85, 50 mM KCl, recombinant protein, label: 5'-32P on one strand, probe letters rebuilt from the primers and the genome, part of a longer molecule

Measured: binding result

CGATTAGAATCTTTGGAGCGAGAAAACACAGAGTGAAAAATGATCAAAGGAATTGCTTAAAAACATTAAAAAATAAGACTTTAATTTTTAATATTCCATGAAAACAAAGCCTTAATTTCCATTAATAACTATGATAATGTTTTGAATTTTTATTTTTAAGATATTTTCAAGGTATCTTTAATAATAAAATGCTAGAATTAGTCCCTTAAAACATTAGCAAAGTTAATCGTTTTTAAAGTTGCAGAAATCATTGAAGGAGTTAAT (double strand) [ParsR wild-type footprinting probe]
binds more weakly: [1] | [2]; holo-Fur 70 nM tetramer plus increasing holo-NikR (to 32 nM tetramer), 150 uM Ni2+, site fOPIII | [2]; holo-Fur 70 nM tetramer plus increasing holo-NikR, site fOPII

The exact form of at least one protein or probe is not confirmed. The comparison behind a weaker result is the experiment's own reference, which may not be listed here. Protein sequences can lack the tags named with them.
